Reference: article PMC7615804
These are yes or no findings as the source states them, for the method shown. For some assays here: Tags and fused reporters may be left off the sequences shown. Values belong to the binder of their own block, whether it stands above or below them.

Tests used:
[1] = target: T1, GST-JIP3^563-585 (JIP3^helix construct) (human) (UniProt Q9UPT6); assay: pull-down; GST pull-down on glutathione resin with GST-JIP3^helix constructs as bait and RH1 domain constructs as prey; purified recombinant proteins, 50 - 300 pmol each in 20 μL GST-PD buffer (50 mM HEPES pH 7.5, 100 mM KCl, 1 mM MgCl2, 1 mM DTT), room temperature; Coomassie-stained SDS-PAGE; both purified
T1 sequence: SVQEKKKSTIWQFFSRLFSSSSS

[2] = target: WD40-SNAP (LIS1 residues 90-410) (human) (UniProt P43034); assay: SEC-MALS; 70 μL at 1 mg/mL, GF150 buffer, Superdex 200 5/150; both purified

B1: JIP3 1-108_V60Q (RH1-domain mutant) (domain or fragment, UniProt Q9ESN9-5 1-108)
chain: MMEIQMDEGGGVVVYQDDYCSGSVMSERVSGLAGSIYREFERLIHCYDEEVVKELMPLVQNVLENLDSVLSENQEHEVELELLREDNEQLLTQYEREKALRKQAEEKF
- binding [1]: no binding (tested: 50 - 300 pmol each in 20 μL)

- binding [2]: no binding (tested: 1 mg/mL)
B2: WD40-SNAP (LIS1 residues 90-410) (domain or fragment, UniProt P43034 90-410)
chain: DPKEWIPRPPEKYALSGHRSPVTRVIFHPVFSVMVSASEDATIKVWDYETGDFERTLKGHTDSVQDISFDHSGKLLASCSADMTIKLWDFQGFECIRTMHGHDHNVSSVAIMPNGDHIVSASRDKTIKMWEVQTGYCVKTFTGHREWVRMVRPNQDGTLIASCSNDQTVRVWVVATKECKAELREHEHVVECISWAPESSYSSISEATGSETKKSGKPGPFLLSGSRDKTIKMWDVSTGMCLMTLVGHDNWVRGVLFHSGGKFILSCADDKTLRVWDYKNKRCMKTLNAHEHFVTSLDFHKTAPYVVTGSVDQTVKVWECR
